Test results reported in patent US20090054376A1, “BENZOFURAN DERIVATIVES WITH THERAPEUTIC ACTIVITIES” (Pharmos Corporation, priority 2005, published 2009).
Some entries share one result that the patent states for a list of compounds.

Test system: oxazolone induced DTH, ear thickness
Assay: Oxazolone induced delayed type hypersensitivity
Assay type: in vivo, Male ICR mice
Conditions: second day following challenge
Description: Male ICR mice (average body weight 20-25 g, Harlan, Israel) were anesthetized using a mixture of 35 mg/kg ketamine and 8 mg/kg xylazine. The abdomen of the sedated animals was shaved, and the animals were sensitized by topical application of 2% oxazolone in acetone:sesame oil (4:1 volume per volume), 100 μl to the shaved abdomen and 5 μl to each paw. Five days later, the sensitized mice were anesthetized again and their right ear was challenged with 10 μl of 1% oxazolone. Immediately before this challenge, vehicle (5 ml/kg) or test compounds were administered i.v. Each treatment group comprised at least 5 animals. The ear thickness was measured 24 and 48 hours following challenge using a micrometer. The difference in ear thickness (ΔThickness) between the challenged and non-challenged ear was calculated. The average ΔThickness and SEM were calculated on each day following challenge (baseline) for all treatment groups.

| SMILES | reduction of ΔThickness (2 mg/kg i.v.) | reduction of ΔThickness (0.5 mg/kg i.v.) |
| --- | --- | --- |
| CCCCC(C)(C)c1cc(O)c2c(c1)OC1CCCCC21 (centres unmarked) [Compound C6S-3, 3-(1,1-dimethylpentyl)-5a,6,7,8,9,9a-hexahydro-dibenzofuran-1-ol] | more than 50% |  |
| CCCCCCC(C)(C)c1cc(O)c2c(c1)OC1C(O)CCCCC21 (stereo not drawn) [Compound C7S-2, 2-(1,1-dimethylheptyl)-5,6,7,8,9,9a-hexahydro-4bH-10-oxa-benzo[α]azulen-4,9-diol] |  | more than 50% |
